In PMC4930482:
These are yes or no findings as the source states them, for the method shown. In cells and extracts the contact can be indirect. Some binding calls cover weakened binding; strength is not graded here. For part of these data: Where a sequence is shown, tags or fusion partners need not be part of it.

By UniProt entry, the sequences of proteins in these tests, tags left out.
UniProt Q9BY78: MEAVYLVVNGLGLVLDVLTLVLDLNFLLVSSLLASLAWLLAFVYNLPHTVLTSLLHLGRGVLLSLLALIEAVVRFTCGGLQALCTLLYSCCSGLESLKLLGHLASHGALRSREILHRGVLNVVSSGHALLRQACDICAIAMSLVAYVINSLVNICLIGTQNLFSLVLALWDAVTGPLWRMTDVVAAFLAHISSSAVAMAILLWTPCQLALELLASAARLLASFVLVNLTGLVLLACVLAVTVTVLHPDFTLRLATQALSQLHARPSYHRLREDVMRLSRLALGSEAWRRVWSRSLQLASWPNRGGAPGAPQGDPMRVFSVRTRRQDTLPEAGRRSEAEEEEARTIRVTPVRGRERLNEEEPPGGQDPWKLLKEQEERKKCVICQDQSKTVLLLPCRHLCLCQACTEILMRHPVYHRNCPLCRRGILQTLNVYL

What was measured:
[1] = target: RNF26, wild type (coIP of Figures 5A and 5B) (UniProt Q9BY78); experiment: co-IP; coIP in HEK293T cells; RNF26 or I382R with endogenous partners (Figure 5A) or with TOLLIP, SQSTM1 and their UBD mutants (Figure 5B); blots against whole-cell lysate controls
[2] = target: RFP-RNF26 (UniProt Q9BY78); experiment: co-IP; complex formation between HA-RNF26 and GFP-TAX1BP1 or its mutants, and between RFP-RNF26 and FLAG-EPS15 or its mutant (Figure S5A); cells not named in the legend

Row | Binder | binding [1] | binding [2]
1 | EPS15 (endogenous) (protein, UniProt P42566 1-896) MAAAAQLSLTQLSSGNPVYEKYYRQVDTGNTGRVLASDAAAFLKKSGLPDLILGKIWDLADTDGKGILNKQEFFVALRLVACAQNGLEVSLSSLNLAVPPPRFHDTSSPLLISGTSAAELPWAVKPEDKAKYDAIFDSLSPVNGFLSGDKVKPVLLNSKLPVDILGRVWELSDIDHDGMLDRDEFAVAMFLVYCALEKEPVPMSLPPALVPPSKRKTWVVSPAEKAKYDEIFLKTDKDMDGFVSGLEVREIFLKTGLPSTLLAHIWSLCDTKDCGKLSKDQFALAFHLISQKLIKGIDPPHVLTPEMIPPSDRASLQKNIIGSSPVADFSAIKELDTLNNEIVDLQREKNNVEQDLKEKEDTIKQRTSEVQDLQDEVQRENTNLQKLQAQKQQVQELLDELDEQKAQLEEQLKEVRKKCAEEAQLISSLKAELTSQESQISTYEEELAKAREELSRLQQETAELEESVESGKAQLEPLQQHLQDSQQEISSMQMKLMEMKDLENHNSQLNWCSSPHSILVNGATDYCSLSTSSSETANLNEHVEGQSNLESEPIHQESPARSSPELLPSGVTDENEVTTAVTEKVCSELDNNRHSKEEDPFNVDSSSLTGPVADTNLDFFQSDPFVGSDPFKDDPFGKIDPFGGDPFKGSDPFASDCFFRQSTDPFATSSTDPFSAANNSSITSVETLKHNDPFAPGGTVVAASDSATDPFASVFGNESFGGGFADFSTLSKVNNEDPFRSATSSSVSNVVITKNVFEETSVKSEDEPPALPPKIGTPTRPCPLPPGKRSINKLDSPDPFKLNDPFQPFPGNDSPKEKDPEIFCDPFTSATTTTNKEADPSNFANFSAYPSEEDMIEWAKRESEREEEQRLARLNQQEQEDLELAIALSKSEISEA | binds | –
2 | USP15 (endogenous) (enzyme, UniProt Q9Y4E8 1-981) MAEGGAADLDTQRSDIATLLKTSLRKGDTWYLVDSRWFKQWKKYVGFDSWDKYQMGDQNVYPGPIDNSGLLKDGDAQSLKEHLIDELDYILLPTEGWNKLVSWYTLMEGQEPIARKVVEQGMFVKHCKVEVYLTELKLCENGNMNNVVTRRFSKADTIDTIEKEIRKIFSIPDEKETRLWNKYMSNTFEPLNKPDSTIQDAGLYQGQVLVIEQKNEDGTWPRGPSTPKSPGASNFSTLPKISPSSLSNNYNNMNNRNVKNSNYCLPSYTAYKNYDYSEPGRNNEQPGLCGLSNLGNTCFMNSAIQCLSNTPPLTEYFLNDKYQEELNFDNPLGMRGEIAKSYAELIKQMWSGKFSYVTPRAFKTQVGRFAPQFSGYQQQDCQELLAFLLDGLHEDLNRIRKKPYIQLKDADGRPDKVVAEEAWENHLKRNDSIIVDIFHGLFKSTLVCPECAKISVTFDPFCYLTLPLPMKKERTLEVYLVRMDPLTKPMQYKVVVPKIGNILDLCTALSALSGIPADKMIVTDIYNHRFHRIFAMDENLSSIMERDDIYVFEININRTEDTEHVIIPVCLREKFRHSSYTHHTGSSLFGQPFLMAVPRNNTEDKLYNLLLLRMCRYVKISTETEETEGSLHCCKDQNINGNGPNGIHEEGSPSEMETDEPDDESSQDQELPSENENSQSEDSVGGDNDSENGLCTEDTCKGQLTGHKKRLFTFQFNNLGNTDINYIKDDTRHIRFDDRQLRLDERSFLALDWDPDLKKRYFDENAAEDFEKHESVEYKPPKKPFVKLKDCIELFTTKEKLGAEDPWYCPNCKEHQQATKKLDLWSLPPVLVVHLKRFSYSRYMRDKLDTLVDFPINDLDMSEFLINPNAGPCRYNLIAVSNHYGGMGGGHYTAFAKNKDDGKWYYFDDSSVSTASEDQIVSKAAYVLFYQRQDTFSGTGFFPLDRETKGASAATGIPLESDEDSNDNDNDIENENCMHTN | binds | –
3 | FLAG-EPS15 (protein, UniProt P42566 1-896) MAAAAQLSLTQLSSGNPVYEKYYRQVDTGNTGRVLASDAAAFLKKSGLPDLILGKIWDLADTDGKGILNKQEFFVALRLVACAQNGLEVSLSSLNLAVPPPRFHDTSSPLLISGTSAAELPWAVKPEDKAKYDAIFDSLSPVNGFLSGDKVKPVLLNSKLPVDILGRVWELSDIDHDGMLDRDEFAVAMFLVYCALEKEPVPMSLPPALVPPSKRKTWVVSPAEKAKYDEIFLKTDKDMDGFVSGLEVREIFLKTGLPSTLLAHIWSLCDTKDCGKLSKDQFALAFHLISQKLIKGIDPPHVLTPEMIPPSDRASLQKNIIGSSPVADFSAIKELDTLNNEIVDLQREKNNVEQDLKEKEDTIKQRTSEVQDLQDEVQRENTNLQKLQAQKQQVQELLDELDEQKAQLEEQLKEVRKKCAEEAQLISSLKAELTSQESQISTYEEELAKAREELSRLQQETAELEESVESGKAQLEPLQQHLQDSQQEISSMQMKLMEMKDLENHNSQLNWCSSPHSILVNGATDYCSLSTSSSETANLNEHVEGQSNLESEPIHQESPARSSPELLPSGVTDENEVTTAVTEKVCSELDNNRHSKEEDPFNVDSSSLTGPVADTNLDFFQSDPFVGSDPFKDDPFGKIDPFGGDPFKGSDPFASDCFFRQSTDPFATSSTDPFSAANNSSITSVETLKHNDPFAPGGTVVAASDSATDPFASVFGNESFGGGFADFSTLSKVNNEDPFRSATSSSVSNVVITKNVFEETSVKSEDEPPALPPKIGTPTRPCPLPPGKRSINKLDSPDPFKLNDPFQPFPGNDSPKEKDPEIFCDPFTSATTTTNKEADPSNFANFSAYPSEEDMIEWAKRESEREEEQRLARLNQQEQEDLELAIALSKSEISEA | – | binds
